According to patent US12583915:
Residue numbers refer to the chain shown, from its start. No constants are given. Whether binding was seen depends on the method and setting. Some results given as binding are weak or reduced against the parent protein; the word gives no strength. Values belong to the binder of their own block, whether it stands above or below them.

Amino acid sequences for entries named in this document (tags omitted). A change or cut given only in a name is not applied to a line headed by its entry.
UniProt O95816: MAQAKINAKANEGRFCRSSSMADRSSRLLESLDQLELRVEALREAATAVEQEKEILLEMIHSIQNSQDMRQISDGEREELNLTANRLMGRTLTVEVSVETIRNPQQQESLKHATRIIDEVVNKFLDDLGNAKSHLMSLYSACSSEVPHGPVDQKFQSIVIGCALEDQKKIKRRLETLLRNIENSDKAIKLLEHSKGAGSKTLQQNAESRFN

Key:
[1] = molecular target: human His-tagging BAG2 recombinant protein (human) (UniProt O95816); assay: sandwich ELISA, standard curve for BAG2 protein; in combination 2A11-3F12
[2] = molecular target: human His-tagging BAG2 recombinant protein (human) (UniProt O95816); assay: sandwich ELISA, standard curve for BAG2 protein; in the combinations named
[3] = molecular target: human His-tagging BAG2 recombinant protein (human) (UniProt O95816); assay: sandwich ELISA, standard curve for BAG2 protein; in combination 3G8-8C4
[4] = molecular target: human His-tagging BAG2 recombinant protein (human) (UniProt O95816); assay: sandwich ELISA, standard curve for BAG2 protein; in combination 9B12-3G8
[5] = molecular target: human His-tagging BAG2 recombinant protein (human) (UniProt O95816); assay: sandwich ELISA, standard curve for BAG2 protein; in combination 9B3-3F12

B5: 9B12 antibody (antibody, V domains shown)
VH: QVQLQQSGAELVRPGTSVKVSCKASGYAFTNYMIEWIKQRPGQGLEWIGVINPGSGGSYYNEKVKGKATLTADRSSSTAYMQFSSLTADDSGVYFCRIYGNYKGYFDHWGQGTTLTVSS
VL: DIVMTQSPSSMYASLGERVTITCKASQDMNSYLSWFQQKPGKSPKTLIYRANRLVDGVPSRFSGSGSGQDYSLTISSLEYEDMGIYYCLQNDEFPFTFGSGTKLEMK
binding [4]: binds

B6: 9B3 antibody (antibody, V domains shown)
VH: B5 VH with Q1E, R74K, G92A, H108Y
VL: B5 VL with M29I, M106I
binding [5]: binds

The next lines start with the values.

binding [1]: binds
B1: 2A11 antibody (antibody, V domains shown)
VH: QVQLQQPGAELVRPGASVTLSCKASGYTFTDYEMHWVKQTPVHGLEWIGIIDPETGGTAYNQKFKGKATLTADKSSSTAYMELRSLTSEDSAVYYCTRGKFYYSGRDYAMDYWGQGTSVTVSS
VL: DVLMTQTPLSLPVSLGDQASISCRSSQSIVHSNGNTYLEWYLQKPGQSPKLLIYKVSNRFSGVPDRFSGSGSGTDFTLKISRVEAEDLGVYFCFQGSQVPPTFGGGTKLEIK

binding [2]: binds
B2: 4C2 antibody (antibody, V domains shown)
VH: B1 VH with G57A
VL: B1 VL with I53F

binding [3]: binds
B3: 8C4 antibody (antibody, V domains shown)
VH: B1 VH with G56A
VL: B1 VL with I53F

binding [2]: binds
B4: 3G8 antibody (antibody, V domains shown)
VH: QIQLVQSGPELKKPGETVKISCKASGYSFTKYGMNWVKQAPGKDIKWMGWINTNTGEATYGEEVKGRFAFSLETSASTAYLQINNLKNEDTATYFCARLGLRYLDYWGQGTTLTVSS
VL: DIVMTQSPASLVVSLGQRATISCRASKSVSTSDYSYMHWYQQKPGQPPKVLIYLASNLESGVPARFSGSGSGTDFTLNIHPVEEEDAATYYCQHNRELPPTFGAGTKLELK
